According to publication PMC8698322:
Results are given in words; binding and its absence hold for the method and conditions named. For part of these data: A result given as binding can be weak or reduced; the word gives no strength. For part of these data: Where a sequence is shown, tags or fusion partners need not be part of it. For part of these data: Binding seen in cells or lysates may run through a third protein.

By UniProt entry, the sequences of proteins in these tests, tags left out. Where a name states a change or a piece, a line headed by the entry shows the natural chain unless it says otherwise. Residues count along the entry.
UniProt P02769, residues 25-607: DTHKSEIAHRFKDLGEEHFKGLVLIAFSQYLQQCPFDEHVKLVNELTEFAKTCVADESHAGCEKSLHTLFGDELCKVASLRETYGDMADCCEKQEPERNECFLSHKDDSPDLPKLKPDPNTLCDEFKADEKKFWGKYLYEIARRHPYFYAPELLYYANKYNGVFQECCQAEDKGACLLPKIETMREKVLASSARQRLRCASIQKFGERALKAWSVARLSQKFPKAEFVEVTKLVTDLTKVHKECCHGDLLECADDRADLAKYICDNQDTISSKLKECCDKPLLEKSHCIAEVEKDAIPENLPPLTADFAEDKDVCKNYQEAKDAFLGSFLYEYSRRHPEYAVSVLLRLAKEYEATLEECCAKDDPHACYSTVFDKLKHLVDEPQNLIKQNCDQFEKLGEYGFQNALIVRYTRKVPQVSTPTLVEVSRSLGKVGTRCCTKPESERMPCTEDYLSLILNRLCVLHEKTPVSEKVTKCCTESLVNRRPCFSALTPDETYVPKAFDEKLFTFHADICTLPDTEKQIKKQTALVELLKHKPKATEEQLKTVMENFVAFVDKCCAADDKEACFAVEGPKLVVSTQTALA
UniProt Q257C6: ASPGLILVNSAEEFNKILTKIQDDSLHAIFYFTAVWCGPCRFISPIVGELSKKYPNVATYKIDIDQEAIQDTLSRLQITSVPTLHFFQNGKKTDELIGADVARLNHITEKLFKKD

Experiments:
[1] = molecular target: T1, recombinant human ATG4B, His-tagged (His-HsATG4B) (human) (UniProt Q9Y4P1); assay: far-Western, overlay or dot blot; PsTRXo1 (1.5 µg), HsATG4B (2.3 µg) and BSA (1.5 µg) spotted on membranes, blocked in TBST (25 mM Tris-HCl pH 7.5, 1% BSA, 0.1% Tween-20), overlaid with 0.2 µg PsTRXo1 or 0.1 µg HsATG4B in TBST for 2 h at room temperature; detected with anti-PsTRXo1 or anti-CrATG4B; both purified
T1 sequence: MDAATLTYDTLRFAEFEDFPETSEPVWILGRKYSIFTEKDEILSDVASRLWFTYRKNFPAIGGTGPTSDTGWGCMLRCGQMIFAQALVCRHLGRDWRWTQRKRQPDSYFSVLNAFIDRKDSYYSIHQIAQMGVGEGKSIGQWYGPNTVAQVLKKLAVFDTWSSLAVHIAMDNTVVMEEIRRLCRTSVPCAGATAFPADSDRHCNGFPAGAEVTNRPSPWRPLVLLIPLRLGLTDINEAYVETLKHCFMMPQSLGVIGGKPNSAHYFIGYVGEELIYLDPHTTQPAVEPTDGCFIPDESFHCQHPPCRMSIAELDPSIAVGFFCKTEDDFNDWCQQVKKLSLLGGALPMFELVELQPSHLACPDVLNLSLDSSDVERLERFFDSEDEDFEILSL

[2] = molecular target: bovine serum albumin (bovine) (UniProt P02769); assay: as above
[3] = molecular target: T1, recombinant human ATG4B, His-tagged (His-HsATG4B) (human); assay: co-IP; 4 µg His-HsATG4B and 8 µg PsTRXo1 in 500 µL kit lysis buffer, µMACS Anti-His MicroBeads, 2 h at 4 °C; eluate blotted with anti-His, then with anti-PsTRXo1; both purified

Substance: recombinant pea thioredoxin o1 (PsTRXo1) (from UniProt Q257C6)
- binding [1]: binds
- binding [2]: no binding (tested: 0.2 µg of recombinant PsTRXo1 overlaid)
- binding [3]: binds
